# In the supplement of paper PMC6411743:
# Sequences of proteins named here, by UniProt entry; tags and fusion partners are left off. A change or cut given only in a name is not applied to a line headed by its entry.
# UniProt Q9Y592: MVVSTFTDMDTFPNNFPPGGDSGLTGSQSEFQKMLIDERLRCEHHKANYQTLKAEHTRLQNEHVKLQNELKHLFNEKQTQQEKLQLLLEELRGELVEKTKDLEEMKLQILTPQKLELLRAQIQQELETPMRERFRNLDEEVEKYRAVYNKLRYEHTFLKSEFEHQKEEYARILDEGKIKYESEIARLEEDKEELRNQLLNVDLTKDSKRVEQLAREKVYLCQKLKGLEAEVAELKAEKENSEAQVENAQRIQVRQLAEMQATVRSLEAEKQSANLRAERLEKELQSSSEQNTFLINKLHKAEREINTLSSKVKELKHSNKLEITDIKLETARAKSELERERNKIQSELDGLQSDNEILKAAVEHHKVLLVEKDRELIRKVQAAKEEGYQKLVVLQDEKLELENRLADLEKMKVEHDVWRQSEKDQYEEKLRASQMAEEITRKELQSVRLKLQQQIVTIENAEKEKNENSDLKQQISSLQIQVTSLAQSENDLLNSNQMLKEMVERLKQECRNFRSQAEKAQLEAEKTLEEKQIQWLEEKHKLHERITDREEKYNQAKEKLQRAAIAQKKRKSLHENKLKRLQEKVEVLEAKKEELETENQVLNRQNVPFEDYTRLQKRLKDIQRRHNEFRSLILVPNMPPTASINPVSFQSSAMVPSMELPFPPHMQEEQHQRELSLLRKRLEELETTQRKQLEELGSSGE
# UniProt P29017: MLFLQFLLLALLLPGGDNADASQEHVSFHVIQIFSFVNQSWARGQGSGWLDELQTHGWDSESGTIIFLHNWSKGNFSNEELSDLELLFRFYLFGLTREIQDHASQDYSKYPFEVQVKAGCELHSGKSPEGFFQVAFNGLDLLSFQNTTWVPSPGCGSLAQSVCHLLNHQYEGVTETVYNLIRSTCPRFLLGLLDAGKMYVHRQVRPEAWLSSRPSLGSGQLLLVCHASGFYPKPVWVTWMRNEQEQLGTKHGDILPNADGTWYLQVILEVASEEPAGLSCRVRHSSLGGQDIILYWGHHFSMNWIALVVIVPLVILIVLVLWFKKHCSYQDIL
# UniProt Q9NWW5: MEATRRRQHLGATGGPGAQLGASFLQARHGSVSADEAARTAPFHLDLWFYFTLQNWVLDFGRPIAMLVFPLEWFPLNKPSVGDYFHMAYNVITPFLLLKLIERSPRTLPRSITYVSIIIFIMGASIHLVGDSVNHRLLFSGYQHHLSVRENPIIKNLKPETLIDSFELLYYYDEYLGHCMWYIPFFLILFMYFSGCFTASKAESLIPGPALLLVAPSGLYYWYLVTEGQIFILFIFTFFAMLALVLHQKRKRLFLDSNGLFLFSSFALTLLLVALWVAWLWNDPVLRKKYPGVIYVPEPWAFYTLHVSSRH
# UniProt Q13620, whole entry: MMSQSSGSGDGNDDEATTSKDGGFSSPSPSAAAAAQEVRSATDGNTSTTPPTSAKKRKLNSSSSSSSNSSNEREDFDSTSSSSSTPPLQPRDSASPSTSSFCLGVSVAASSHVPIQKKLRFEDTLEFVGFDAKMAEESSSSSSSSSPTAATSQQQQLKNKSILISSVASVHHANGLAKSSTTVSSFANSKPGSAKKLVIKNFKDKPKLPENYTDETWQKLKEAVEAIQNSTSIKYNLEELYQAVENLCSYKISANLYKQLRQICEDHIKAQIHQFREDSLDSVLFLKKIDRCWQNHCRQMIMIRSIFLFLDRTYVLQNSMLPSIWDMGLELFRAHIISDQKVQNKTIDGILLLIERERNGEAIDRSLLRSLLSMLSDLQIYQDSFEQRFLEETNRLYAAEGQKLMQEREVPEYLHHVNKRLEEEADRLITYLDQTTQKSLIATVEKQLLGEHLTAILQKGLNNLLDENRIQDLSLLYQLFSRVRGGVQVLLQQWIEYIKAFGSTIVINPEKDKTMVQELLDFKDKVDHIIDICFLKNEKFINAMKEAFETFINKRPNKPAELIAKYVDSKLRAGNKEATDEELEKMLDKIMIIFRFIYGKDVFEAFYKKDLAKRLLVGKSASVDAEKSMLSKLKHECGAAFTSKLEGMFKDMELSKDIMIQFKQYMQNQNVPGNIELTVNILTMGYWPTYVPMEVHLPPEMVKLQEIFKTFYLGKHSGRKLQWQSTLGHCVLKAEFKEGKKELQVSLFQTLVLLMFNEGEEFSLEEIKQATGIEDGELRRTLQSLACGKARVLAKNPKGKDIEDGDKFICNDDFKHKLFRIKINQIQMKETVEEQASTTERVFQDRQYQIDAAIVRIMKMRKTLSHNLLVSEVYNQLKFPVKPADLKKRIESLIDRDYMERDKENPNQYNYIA
# UniProt Q16822, whole entry: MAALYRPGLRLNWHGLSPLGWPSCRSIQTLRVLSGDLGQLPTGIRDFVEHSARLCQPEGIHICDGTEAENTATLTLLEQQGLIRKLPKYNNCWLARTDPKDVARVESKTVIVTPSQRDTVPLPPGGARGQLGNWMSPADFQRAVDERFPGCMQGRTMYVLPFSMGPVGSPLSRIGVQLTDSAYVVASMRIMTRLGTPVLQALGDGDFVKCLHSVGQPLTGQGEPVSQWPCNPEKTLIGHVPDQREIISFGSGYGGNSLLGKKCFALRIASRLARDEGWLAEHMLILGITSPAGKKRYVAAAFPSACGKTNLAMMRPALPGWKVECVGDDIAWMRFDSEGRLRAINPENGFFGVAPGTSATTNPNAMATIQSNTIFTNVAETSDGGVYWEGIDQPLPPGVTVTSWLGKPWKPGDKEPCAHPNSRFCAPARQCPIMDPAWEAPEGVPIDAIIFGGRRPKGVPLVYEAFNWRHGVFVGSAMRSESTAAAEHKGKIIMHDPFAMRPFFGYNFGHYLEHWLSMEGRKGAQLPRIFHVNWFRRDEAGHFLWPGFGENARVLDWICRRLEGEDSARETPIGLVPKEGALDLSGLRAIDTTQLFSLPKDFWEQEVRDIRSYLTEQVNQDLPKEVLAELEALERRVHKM
# UniProt Q9Y3E5: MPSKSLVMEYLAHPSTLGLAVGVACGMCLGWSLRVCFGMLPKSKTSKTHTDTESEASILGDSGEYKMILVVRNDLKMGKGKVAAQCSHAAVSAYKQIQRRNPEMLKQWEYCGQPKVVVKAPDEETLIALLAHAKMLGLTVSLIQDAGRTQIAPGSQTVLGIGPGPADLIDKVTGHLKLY
# UniProt P42694: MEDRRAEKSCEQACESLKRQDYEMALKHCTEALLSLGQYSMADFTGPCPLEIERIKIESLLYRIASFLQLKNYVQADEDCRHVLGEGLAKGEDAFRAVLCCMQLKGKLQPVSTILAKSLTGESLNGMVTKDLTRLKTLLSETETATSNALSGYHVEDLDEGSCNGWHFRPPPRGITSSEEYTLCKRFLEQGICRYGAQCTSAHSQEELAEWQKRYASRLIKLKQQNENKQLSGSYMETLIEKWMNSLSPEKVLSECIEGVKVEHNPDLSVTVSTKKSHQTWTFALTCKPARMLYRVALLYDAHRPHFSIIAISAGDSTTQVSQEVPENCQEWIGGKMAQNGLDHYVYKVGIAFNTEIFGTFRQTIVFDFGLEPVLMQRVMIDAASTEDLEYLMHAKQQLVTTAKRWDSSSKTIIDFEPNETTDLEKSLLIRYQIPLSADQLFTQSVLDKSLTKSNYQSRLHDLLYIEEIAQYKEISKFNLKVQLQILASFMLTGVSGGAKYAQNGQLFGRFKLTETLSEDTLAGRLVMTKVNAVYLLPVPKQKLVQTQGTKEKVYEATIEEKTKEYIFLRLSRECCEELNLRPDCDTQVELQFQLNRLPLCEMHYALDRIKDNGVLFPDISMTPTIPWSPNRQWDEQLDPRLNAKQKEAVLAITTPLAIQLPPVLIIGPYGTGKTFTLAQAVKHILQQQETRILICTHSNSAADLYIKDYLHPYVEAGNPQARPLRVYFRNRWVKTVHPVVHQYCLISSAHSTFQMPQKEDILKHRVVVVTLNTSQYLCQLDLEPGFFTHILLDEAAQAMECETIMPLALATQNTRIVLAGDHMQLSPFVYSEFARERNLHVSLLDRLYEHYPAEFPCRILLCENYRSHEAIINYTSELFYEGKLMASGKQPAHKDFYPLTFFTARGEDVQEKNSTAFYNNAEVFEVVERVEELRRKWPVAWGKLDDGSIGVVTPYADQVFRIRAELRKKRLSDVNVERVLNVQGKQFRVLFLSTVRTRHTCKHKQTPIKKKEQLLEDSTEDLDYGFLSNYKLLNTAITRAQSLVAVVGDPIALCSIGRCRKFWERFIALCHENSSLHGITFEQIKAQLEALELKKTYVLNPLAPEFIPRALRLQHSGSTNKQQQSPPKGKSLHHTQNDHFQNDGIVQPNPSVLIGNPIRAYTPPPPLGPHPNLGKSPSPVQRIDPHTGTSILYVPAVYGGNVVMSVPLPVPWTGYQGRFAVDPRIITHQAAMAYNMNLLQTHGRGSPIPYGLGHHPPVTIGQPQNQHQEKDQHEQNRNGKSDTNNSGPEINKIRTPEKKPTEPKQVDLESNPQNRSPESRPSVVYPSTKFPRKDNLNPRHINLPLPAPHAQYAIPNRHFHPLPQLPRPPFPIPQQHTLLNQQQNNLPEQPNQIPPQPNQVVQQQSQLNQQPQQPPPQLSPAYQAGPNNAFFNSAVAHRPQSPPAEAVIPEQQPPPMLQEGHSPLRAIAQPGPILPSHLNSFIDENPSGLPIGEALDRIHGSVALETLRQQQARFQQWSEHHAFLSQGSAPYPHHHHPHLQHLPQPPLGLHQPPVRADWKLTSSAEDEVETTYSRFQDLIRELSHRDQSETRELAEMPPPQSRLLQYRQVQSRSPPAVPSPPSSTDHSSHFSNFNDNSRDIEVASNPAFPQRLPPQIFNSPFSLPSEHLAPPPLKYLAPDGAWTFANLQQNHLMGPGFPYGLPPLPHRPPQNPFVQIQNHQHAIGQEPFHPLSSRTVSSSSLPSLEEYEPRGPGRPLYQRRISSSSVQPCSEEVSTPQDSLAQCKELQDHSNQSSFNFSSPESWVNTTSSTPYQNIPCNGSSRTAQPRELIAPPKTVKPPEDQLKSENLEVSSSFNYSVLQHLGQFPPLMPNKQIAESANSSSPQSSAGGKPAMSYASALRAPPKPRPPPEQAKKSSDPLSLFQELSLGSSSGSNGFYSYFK
# UniProt Q9BRA0: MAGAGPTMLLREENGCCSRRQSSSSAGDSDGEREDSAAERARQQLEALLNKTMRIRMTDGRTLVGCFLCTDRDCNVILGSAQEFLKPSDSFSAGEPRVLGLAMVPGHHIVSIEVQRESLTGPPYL
# UniProt O95166, whole entry: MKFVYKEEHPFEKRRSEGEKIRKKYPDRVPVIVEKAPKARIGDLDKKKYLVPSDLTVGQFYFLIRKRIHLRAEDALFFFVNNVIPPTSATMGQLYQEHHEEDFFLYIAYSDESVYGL
# UniProt P05106: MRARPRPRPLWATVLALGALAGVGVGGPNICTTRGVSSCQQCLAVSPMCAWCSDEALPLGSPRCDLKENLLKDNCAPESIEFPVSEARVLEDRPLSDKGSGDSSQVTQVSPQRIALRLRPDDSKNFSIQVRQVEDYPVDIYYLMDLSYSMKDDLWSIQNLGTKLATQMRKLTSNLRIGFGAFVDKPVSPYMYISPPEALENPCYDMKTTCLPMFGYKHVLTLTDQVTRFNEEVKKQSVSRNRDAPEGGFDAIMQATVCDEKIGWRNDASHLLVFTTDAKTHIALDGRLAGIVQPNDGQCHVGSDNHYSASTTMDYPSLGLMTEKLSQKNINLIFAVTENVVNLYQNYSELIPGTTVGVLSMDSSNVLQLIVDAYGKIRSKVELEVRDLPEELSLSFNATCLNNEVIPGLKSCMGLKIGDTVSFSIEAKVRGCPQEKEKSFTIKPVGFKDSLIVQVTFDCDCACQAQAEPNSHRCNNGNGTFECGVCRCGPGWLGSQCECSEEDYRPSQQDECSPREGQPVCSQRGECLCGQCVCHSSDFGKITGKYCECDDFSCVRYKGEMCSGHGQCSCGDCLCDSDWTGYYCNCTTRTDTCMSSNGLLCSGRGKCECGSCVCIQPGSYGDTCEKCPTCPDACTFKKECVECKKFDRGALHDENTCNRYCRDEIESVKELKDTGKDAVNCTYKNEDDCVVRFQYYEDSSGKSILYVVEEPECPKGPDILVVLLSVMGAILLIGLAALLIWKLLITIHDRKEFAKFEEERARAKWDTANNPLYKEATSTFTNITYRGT
# UniProt Q9BSR8: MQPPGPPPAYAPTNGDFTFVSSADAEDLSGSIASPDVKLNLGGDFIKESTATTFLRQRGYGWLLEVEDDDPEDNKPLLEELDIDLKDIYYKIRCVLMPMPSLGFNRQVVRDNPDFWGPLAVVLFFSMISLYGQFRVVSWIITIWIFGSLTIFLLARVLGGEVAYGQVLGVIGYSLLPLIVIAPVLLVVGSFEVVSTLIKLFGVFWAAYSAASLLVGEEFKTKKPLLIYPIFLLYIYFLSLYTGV
# ± gives the standard deviation of the averaged measurements. This is a selection; strong and weak results do not stand in their true shares.
# Compound: Nc1ncnc2c1ncn2[C@@H]1O[C@H](COP(=O)(O)OP(=O)(O)NP(=O)(O)O)[C@@H](O)[C@H]1O [adenylyl imidodiphosphate]
# Experiment: NP40-soluble protein abundance relative to vehicle (solubility fold change) (ratio); higher = more soluble protein in presence of AMP-PNP
# In short: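 Jurkat crude lysate prepared with a Dounce homogeniser was treated at eight concentrations spanning 0.1 to 10 mM, 10 min at room temperature then 3 min at 37 °C. Solubilisation with 0.8% NP40 and benzonase and ultracentrifugation preceded TMT labelling of the supernatant for LC-MS/MS. Fold change against the detergent-processed vehicle was determined per replicate from vsn-normalised intensities, across three independent experiments.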
Target,NP40-soluble protein abundance (concentration: 1mM),NP40-soluble protein abundance (concentration: 2mM),NP40-soluble protein abundance (concentration: 4mM),NP40-soluble protein abundance (concentration: 6mM),NP40-soluble protein abundance (concentration: 8mM),NP40-soluble protein abundance (concentration: 10mM)
J3KNW7 and related entries (UniProt Q9Y592),0.9829 ± 0.0023,0.9724 ± 0.0032,0.977 ± 0.029,0.9893 ± 0.0026,1.02 ± 0.016,1 ± 0.022
H0Y6Y6 and related entries (UniProt P29017),0.995 ± 0.053,1.03 ± 0.077,0.972 ± 0.063,1.07 ± 0.046,1.03 ± 0.056,1.03 ± 0.087
H3BUV4 and related entries (UniProt Q9NWW5),1.03 ± 0.015,0.939 ± 0.13,1 ± 0.027,1.03 ± 0.011,1.05 ± 0.016,1.03 ± 0.07
K4DI93 and related entries (UniProt Q13620),0.991 ± 0.011,0.936 ± 0.05,0.9972 ± 0.0076,0.992 ± 0.028,1 ± 0.017,0.995 ± 0.024
H0YM31 and related entries (UniProt Q16822),1.01 ± 0.014,0.962 ± 0.075,1.017 ± 0.0096,0.962 ± 0.027,0.972 ± 0.02,0.959 ± 0.021
J3KQ48 and related entries (UniProt Q9Y3E5),1.02 ± 0.053,1.03 ± 0.029,1.03 ± 0.033,1.04 ± 0.015,1.073 ± 0.0098,1.04 ± 0.024
H7BY16 and related entries (UniProt P19338),1.01 ± 0.022,1.1 ± 0.073,1.04 ± 0.03,1.12 ± 0.052,1.06 ± 0.029,1.14 ± 0.065
J3QS41 and related entries (UniProt P42694),0.942 ± 0.031,0.921 ± 0.04,0.942 ± 0.04,0.912 ± 0.0096,0.908 ± 0.031,0.895 ± 0.018
I3L3Z2 and related entries (UniProt Q9BRA0),0.948 ± 0.04,1 ± 0.041,1 ± 0.032,1.01 ± 0.054,1 ± 0.028,1.01 ± 0.061
H0YHA7 and related entries (UniProt Q07020),1.02 ± 0.038,0.9774 ± 0.0023,1.01 ± 0.086,0.9115 ± 0.0037,0.766 ± 0.042,1.04 ± 0.082
J3KNQ6 and related entries (UniProt Q86VK4),0.9972 ± 0.0069,1.01 ± 0.023,0.981 ± 0.021,1.03 ± 0.03,1.03 ± 0.033,1.02 ± 0.013
H6UMI1 and related entries (UniProt O95166),1.07 ± 0.053,1 ± 0.051,1.01 ± 0.076,1.01 ± 0.035,1.01 ± 0.045,0.9706 ± 0.004
H3BM21 and related entries (UniProt P05106+I3L4X8+H3BM21),1 ± 0.012,1.02 ± 0.034,1.001 ± 0.0047,1.03 ± 0.012,0.966 ± 0.012,0.996 ± 0.013
J3KNA0 and related entries (UniProt Q15070),0.987 ± 0.04,0.961 ± 0.028,0.985 ± 0.045,0.982 ± 0.018,1.02 ± 0.014,0.989 ± 0.025
H7C0D5 and related entries (UniProt Q9BSR8),0.978 ± 0.082,0.971 ± 0.029,0.956 ± 0.1,0.956 ± 0.024,0.94 ± 0.066,0.976 ± 0.05

# 2 entries picked at random from those above, as already listed:
Target,NP40-soluble protein abundance (concentration: 1mM),NP40-soluble protein abundance (concentration: 2mM),NP40-soluble protein abundance (concentration: 4mM),NP40-soluble protein abundance (concentration: 6mM),NP40-soluble protein abundance (concentration: 8mM),NP40-soluble protein abundance (concentration: 10mM)
H0YHA7 and related entries (UniProt Q07020),1.02 ± 0.038,0.9774 ± 0.0023,1.01 ± 0.086,0.9115 ± 0.0037,0.766 ± 0.042,1.04 ± 0.082
H6UMI1 and related entries (UniProt O95166),1.07 ± 0.053,1 ± 0.051,1.01 ± 0.076,1.01 ± 0.035,1.01 ± 0.045,0.9706 ± 0.004
